# Results from the supplement of paper PMC11732987, “Enantioselective OTUD7B fragment discovery through chemoproteomics screening and high-throughput optimisation” (Communications Chemistry, 2025).
# By UniProt entry, the sequences of proteins in these tests, tags left out. Where a name states a change or a piece, a line headed by the entry shows the natural chain unless it says otherwise. Residues count along the entry.
# UniProt Q4ZIN3: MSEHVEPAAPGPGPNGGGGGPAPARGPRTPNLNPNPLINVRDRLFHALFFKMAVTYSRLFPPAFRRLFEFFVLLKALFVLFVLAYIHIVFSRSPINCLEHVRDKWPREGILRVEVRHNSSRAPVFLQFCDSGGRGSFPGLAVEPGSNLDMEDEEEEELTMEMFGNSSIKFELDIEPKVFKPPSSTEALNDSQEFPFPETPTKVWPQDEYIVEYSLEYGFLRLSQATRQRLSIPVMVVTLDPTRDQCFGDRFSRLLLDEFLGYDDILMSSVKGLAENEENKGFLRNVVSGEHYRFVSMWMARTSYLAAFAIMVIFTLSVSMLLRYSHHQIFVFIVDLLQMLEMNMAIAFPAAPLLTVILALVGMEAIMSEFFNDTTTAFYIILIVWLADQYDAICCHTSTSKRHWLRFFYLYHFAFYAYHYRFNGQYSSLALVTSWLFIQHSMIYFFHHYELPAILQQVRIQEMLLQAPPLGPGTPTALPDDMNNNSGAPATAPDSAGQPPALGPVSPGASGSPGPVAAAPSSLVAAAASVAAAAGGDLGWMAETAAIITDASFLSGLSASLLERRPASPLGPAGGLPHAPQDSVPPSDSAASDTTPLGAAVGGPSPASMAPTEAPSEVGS
# UniProt Q7Z392, 805-839: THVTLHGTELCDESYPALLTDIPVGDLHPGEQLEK
# UniProt O14545: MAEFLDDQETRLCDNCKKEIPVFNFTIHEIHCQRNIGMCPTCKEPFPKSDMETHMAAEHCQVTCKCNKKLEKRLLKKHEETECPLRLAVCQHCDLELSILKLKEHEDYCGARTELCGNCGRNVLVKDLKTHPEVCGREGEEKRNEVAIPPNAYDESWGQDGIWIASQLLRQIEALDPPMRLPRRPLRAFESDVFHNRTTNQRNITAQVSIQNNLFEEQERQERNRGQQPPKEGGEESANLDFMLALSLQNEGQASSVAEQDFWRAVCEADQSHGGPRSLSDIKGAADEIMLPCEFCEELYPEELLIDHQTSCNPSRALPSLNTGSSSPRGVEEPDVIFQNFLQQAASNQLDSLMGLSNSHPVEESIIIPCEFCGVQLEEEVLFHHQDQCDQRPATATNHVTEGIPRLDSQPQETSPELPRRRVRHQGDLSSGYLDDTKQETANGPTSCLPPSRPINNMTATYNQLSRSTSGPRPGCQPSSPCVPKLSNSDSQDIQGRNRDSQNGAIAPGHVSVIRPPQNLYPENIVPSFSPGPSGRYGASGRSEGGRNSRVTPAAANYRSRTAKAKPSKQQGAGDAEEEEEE
# UniProt Q9H4I3: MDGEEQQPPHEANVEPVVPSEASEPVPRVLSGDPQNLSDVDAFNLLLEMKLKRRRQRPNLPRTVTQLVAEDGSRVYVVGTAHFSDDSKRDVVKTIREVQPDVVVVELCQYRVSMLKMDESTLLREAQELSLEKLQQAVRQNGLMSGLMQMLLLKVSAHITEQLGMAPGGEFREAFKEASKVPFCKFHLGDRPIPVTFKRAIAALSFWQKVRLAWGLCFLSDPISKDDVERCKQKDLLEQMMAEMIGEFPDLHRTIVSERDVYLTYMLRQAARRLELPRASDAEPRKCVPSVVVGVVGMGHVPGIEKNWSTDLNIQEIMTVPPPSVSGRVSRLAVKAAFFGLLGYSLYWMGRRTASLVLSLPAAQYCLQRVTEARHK
# UniProt Q9Y3A6: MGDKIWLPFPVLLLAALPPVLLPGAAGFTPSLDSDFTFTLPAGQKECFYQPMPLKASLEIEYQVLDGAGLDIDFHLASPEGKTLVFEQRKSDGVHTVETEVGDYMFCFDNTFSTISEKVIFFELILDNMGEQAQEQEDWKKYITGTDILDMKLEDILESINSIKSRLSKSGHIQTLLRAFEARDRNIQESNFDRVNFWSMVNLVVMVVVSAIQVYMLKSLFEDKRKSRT
# Some of the results follow. The data scatter; read single values as rough.
# Assays:
# [1] = compound: ClCC(=O)N[C@@H]1CCCc2ccccc12; assay: log2 mean competition ratio of IA-DTB cysteine labelling (DMSO/compound) (log2 ratio); higher = stronger cysteine engagement by compound; conditions: treatment time: 4 h, cell line lysate: HEK293T
# Experimental: (§1)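 IA-DTB competitive cysteine chemoproteomics in HEK293T RIPA lysate. Lysates were treated with compound 29 or 30 at 50 or 200 µM for 4 h, then IA-DTB (500 µM, 1 h), trypsin-digested, NeutrAvidin-enriched and analysed by diaPASEF. Competition ratio = intensity DMSO / intensity compound (n=4 treated, n=64 DMSO); binding: mean log2 CR ≥ 1 and p ≤ 0.05 plus QC filters. Target is the cysteine site.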
# [2] = compound: ClCC(=O)N[C@H]1CCCc2ccccc12; assay: as above; conditions: treatment time: 4 h, cell line lysate: HEK293T
# Experimental: as §1
target,measurement,setting,value
TMEM259 C246 (UniProt Q4ZIN3),log2 mean competition ratio,[1]; 50 µM,-0.303
same,log2 mean competition ratio,[1]; 200 µM,0.0886
same,log2 mean competition ratio,[2]; 50 µM,-0.111
same,log2 mean competition ratio,[2]; 200 µM,0.418
TRERF1 C1065,log2 mean competition ratio,[1]; 50 µM,-0.233
same,log2 mean competition ratio,[1]; 200 µM,0.315
same,log2 mean competition ratio,[2]; 50 µM,0.0759
same,log2 mean competition ratio,[2]; 200 µM,0.427
TRAPPC11 C815 (UniProt Q7Z392),log2 mean competition ratio,[1]; 50 µM,0.0153
same,log2 mean competition ratio,[1]; 200 µM,0.206
same,log2 mean competition ratio,[2]; 50 µM,0.155
same,log2 mean competition ratio,[2]; 200 µM,-0.371
TRAFD1 C267 (UniProt O14545),log2 mean competition ratio,[1]; 50 µM,-0.0369
same,log2 mean competition ratio,[1]; 200 µM,0.118
same,log2 mean competition ratio,[2]; 50 µM,0.0426
same,log2 mean competition ratio,[2]; 200 µM,0.0147
TRABD C108 (UniProt Q9H4I3),log2 mean competition ratio,[1]; 50 µM,-0.231
same,log2 mean competition ratio,[1]; 200 µM,-0.115
same,log2 mean competition ratio,[2]; 50 µM,-0.137
same,log2 mean competition ratio,[2]; 200 µM,-0.0691
TMED5 C47 (UniProt Q9Y3A6),log2 mean competition ratio,[1]; 50 µM,0.0522
same,log2 mean competition ratio,[1]; 200 µM,-0.305
same,log2 mean competition ratio,[2]; 50 µM,-0.0283
same,log2 mean competition ratio,[2]; 200 µM,-0.239

# Some of the entries above in another layout:
target | measurement | setting | value
TRAPPC11 C815 (UniProt Q7Z392) | log2 mean competition ratio | [1]; 200 µM | 0.206
TRABD C108 (UniProt Q9H4I3) | log2 mean competition ratio | [1]; 50 µM | -0.231
